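Assay of Toxoplasma gondii numbers, read through their beta-galactosidase reporter with a colour substrate. Tested at 50 µM. Higher reads as fewer parasites (inferred from which compounds were picked for retests). Size under these conditions: about 18,000 compounds, about 170 of them at 50% or above in at least one test.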

Results are given as percent effect.
How 0% and 100% were set is not recorded. Most values in the screen are low, and negative values occur.
Compounds were drawn at random from those tested, without regard to their results.

structure,percent effect
O=C1CC(O)C(=O)N1C1CCCCC1 (stereo not shown),0.08439
CN(CCCOc1ccc(Cl)cc1)CC(N)=O,5.201
N#Cc1ccccc1CN1CCC(CO)CC1,-4.887
COC(=O)CNS(=O)(=O)c1ccc(C)cc1,-9.707
N#CCC1(O)CN(S(=O)(=O)C=Cc2ccc(Cl)cc2)C1,2.424
NCCc1noc2ccccc12,-9.761
OCCOc1ccccc1CN1C[C@H]2CC[C@@H](C1)[C@H]2O,-11.72
O=C(NCCn1c(=O)oc2ccccc21)C1CCCC1,-21.56
Cc1cncc(C(=O)Nc2sc(C)cc2C(N)=O)c1,2.925
Cn1ccnc1-c1noc(NCc2cscn2)n1,-5.968
Cc1cc(C(O)C(C)C)nn1C (stereo not shown),1.343
CNC(=O)Cn1cc(-c2ccnc3c2ccn3C)cn1,6.057
CCS(=O)(=O)CCNc1cc(C2CC(N)C2)ncn1 (stereo not shown),16.45
NC[C@@H]1CCO[C@H]1c1ccc(F)cc1,-8.956
OCCNC1(c2ccc(Br)cc2)CCOCC1,-9.879
CCSCCNC(=O)c1csc(C(C)=O)c1,8.269
CC(CS(C)(=O)=O)NC(=O)C(C)(C)C (stereo not shown),14.19
O=C(Cc1ccccc1)NC1CCNCC1,-3.652
Cc1noc(C)c1CNS(=O)(=O)N1CCSCC1,5.763
CC1(CCCO)CCCN1 (stereo not shown),8.888
COC(=O)c1ccccc1NC(=O)N1CC[C@@H](O)C1,4.933
CN1CCOC[C@H]2CCN(C(=O)c3ccco3)C[C@H]21,-13.01
NC(CO)Cc1ccccn1 (stereo not shown),3.405
CC(C)C(=O)NC(C)c1ccc2c(c1)OCCO2 (stereo not shown),8.855
Cc1csc(NC(=O)Cn2ccc(=O)n(C)c2=O)n1,-2.974
O=C([C@@H]1C[C@@H](F)CN1)N1CCOCC1,-11.5
Cc1ncncc1C(=O)N[C@@H]1CCOC[C@H]1O,1.464
CNC(=O)NCCS(=O)(=O)NCc1ccc(F)cc1,-5.879
CCCOC1CCCN(C(=O)CCn2cnnn2)C1 (stereo not shown),-6.293
O=C(NC1CCS(=O)(=O)C1)c1ccc(C(F)(F)F)nc1 (stereo not shown),-2.277
CN(C)c1ncccc1C(=O)NCC[C@@H]1CCCN1,-11.57
COCC(=O)NC(Cc1ccccc1)[C@H]1C[C@H](O)C1 (stereo partly shown),-12.38
COCCC1(CN2CCC(C(N)=O)C2)CCC1 (stereo not shown),68.22
O=C(CC1COCCN1)N1CCc2[nH]cnc2C1 (stereo not shown),2.95
Cc1c[nH]c(CN(C)CCC(=O)Nc2cccnc2)n1,-6.802
CC1(C)CNC1c1ccncc1 (stereo not shown),-17.83
CCN1CCN(c2ccc(NC(C)=O)cc2Cl)CC1,-10.23
CC(=O)N1CCN(Cc2ccc(Br)o2)CC1,7.925
Nc1c[nH]nc1-c1ccccn1,64.31
CC(C)Cc1cc(C(=O)N(C)Cc2cnccn2)on1,13.67
CC[C@H]1COCCN1C(=O)CCn1ccc(=O)[nH]c1=O,-4.172
CNC(=O)[C@@H]1CN(C(=O)c2cc(C)n[nH]2)C[C@H]1COC,11.18
COc1ccccc1OCC(C)N (stereo not shown),2.194
CC[C@H](C)[C@H](N)C(=O)NCCc1noc(CO)n1,11.28
CCNC(=O)c1cc(-c2ccc(F)cc2)n[nH]1,-59.48
CCN(C(=O)Cc1csc(N2CCCC2=O)n1)C1CC1,-0.6368
CCSc1nnc(N2CCOCC2)n1C,-9.825
C[C@@H](CO)NC(=O)c1ccccc1NCc1ccco1,16.35
Cc1cccc(NC(=O)C2COCCO2)c1 (stereo not shown),-6.19
CCN(CC)CCOc1ccccc1CN,7.932
Cc1nnnn1CC(=O)N1C[C@H](C2CC2)[C@@H](N)C1,9.921
CCS(=O)(=O)N1CCC(C(=O)NC(C)COC)CC1 (stereo not shown),-3.646
Cn1cc(CNC(=O)c2c[nH]c(=O)c(Br)c2)cn1,-6.767
CC(C)CC(C)N(C)CC(=O)NC(N)=O (stereo not shown),1.785
CSCCc1nc(CC2CCS(=O)(=O)C2)n(CCO)n1 (stereo not shown),1.851
O=C(NCc1ccc2c(c1)OCO2)N1CCCCC1,-4.35
CC(N)c1c(F)cccc1Cl (stereo not shown),-9.252
C1CC(OCCN2CCOCC2)CN1 (stereo not shown),-9.395
O=C(C1CC1)N1CCCC(CN2CCOCC2)CC1 (stereo not shown),-7.303
CN1CCC(NC(=O)c2ccc3ncccc3c2)C1=O (stereo not shown),1.515
N#Cc1c/c(=N\CC2CCCO2)cc[nH]1 (stereo not shown),-2.206
CNC(=O)CN(C)C(=O)C(C)(C)C,9.372
Cc1[nH]c(=O)[nH]c(=O)c1CCC(=O)Nc1ccn(C)n1,-23.2
CCOc1ncccc1CNC(=O)c1ccnn1C,5.08
CN(C)Cc1ccc(C(=O)NCCn2cccc2)cc1,4.627
COc1ccc(NC(=O)NC2CCC(O)CC2)cc1 (stereo not shown),-14.61
CC(CSc1n[nH]c(-c2ccccn2)n1)CS(C)(=O)=O (stereo not shown),14.41
CC(NS(C)(=O)=O)C(=O)NCC1(Cn2ccnc2)CC1 (stereo not shown),5.15
Cc1cnc(N[C@@H](CC(C)C)C(N)=O)nc1N(C)C,0.851
O=C(C1COCCO1)N1CCc2ccc(Br)cc21 (stereo not shown),16.9

For reference, 7 entries once more:

structure	percent effect
CCS(=O)(=O)CCNc1cc(C2CC(N)C2)ncn1 (stereo not shown)	16.45
O=C(C1COCCO1)N1CCc2ccc(Br)cc21 (stereo not shown)	16.9
COCC(=O)NC(Cc1ccccc1)[C@H]1C[C@H](O)C1 (stereo partly shown)	-12.38
O=C(NCc1ccc2c(c1)OCO2)N1CCCCC1	-4.35
O=C([C@@H]1C[C@@H](F)CN1)N1CCOCC1	-11.5
COc1ccccc1OCC(C)N (stereo not shown)	2.194
CN(CCCOc1ccc(Cl)cc1)CC(N)=O	5.201

Source: ChEMBL document CHEMBL3988442, “University of Dundee, Small-Polar-MMV Screening Library” (2021).